Reference: the supplement of paper PMC5949888
Most values lie at the floor of the assay. Slopes are relative: functional sequences can read slightly below zero.

These substances were tested on Saccharomyces cerevisiae PS128 hsf1 delta, HSF1(1-493) fusion (assay: growth estimate (transactivation domain function in HSF1 fusion, heat-shock survival) (a.u. (slope of normalised read count over time)); higher = stronger growth at 37°C, i.e. more transactivation activity). Conditions: library: random library.
Method: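 Random 60-nt DNA library encoding peptides of up to 20 aa, fused to the C-terminus of yeast HSF1 residues 1-493 (C-terminal TAD deleted) and expressed from the native HSF1 promoter on a CEN plasmid in hsf1-deleted S. cerevisiae PS128. Cells were selected at 37°C on -trp 5-FOA plates for 0, 2, 4, 6 and 8 days and amplicons were sequenced. Growth estimate is the slope of a robust linear fit of total-sum-normalised read counts (normalised to the first time point) over time, using at least 2 replicates. Sequences are classed functional (TAD activity) above a threshold of -0.13, set from stop-codon control sequences.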

| Substance | growth estimate |
| --- | --- |
| HTKELPLQIANTNLSRGQRC | < -0.25 |
| HTPIGVSLGNTGLRQTQPYD | < -0.25 |
| HTRDPPTTLDSGGSHKTSST | < -0.25 |
| HTRRENNGHLLPAP | < -0.25 |
| HTRSKGCGLTARRNASLVGS | < -0.25 |
| HTTGVRQSTNFGPWDARRVD | < -0.25 |
| HTTIRYTIRLGSGMLVPSRC | < -0.25 |
| HTWPG | < -0.25 |
| HTYQSSVQASLERKPPST | < -0.25 |
| HVAYYPGSWLEVKFYPFGIA | < -0.25 |
| HVCTVDLEIQIRGH | < -0.25 |
| HVDQSFGRD | < -0.25 |
| HVEGLGVIVLRPHADWVQQR | < -0.25 |
| HVGKFAGLEN | < -0.25 |
| HVGRYR | < -0.25 |
| HVKGGPRSPILPEPIRARVT | < -0.25 |
| HVKSRSYLPSTRSLKFRYIC | -0.246 |
| HVLASGK | < -0.25 |
| HVLGGQLRCSPLAGEPRVKV | < -0.25 |
| HVLYTFEKSRLQLRHDGPTH | < -0.25 |
| HVNDDVFEANWGITLRQVRS | < -0.25 |
| HVNRGKQAGIITAVLAPVSH | < -0.25 |
| HVPGGPANSPFCRFERI | < -0.25 |
| HVPSGRRGFTAIGIGTLGDL | < -0.25 |

Some values from above:
growth estimate with HTRDPPTTLDSGGSHKTSST is entered as < -0.25
growth estimate with HVGKFAGLEN is entered as < -0.25

Remaining list, next part.

| Substance | growth estimate |
| --- | --- |
| HVQRRATL | < -0.25 |
| HVQVTFPVPAQWVASLYWRV | -0.245 |
| HVRVLD | < -0.25 |
| HVSGPVHIDADPP | < -0.25 |
| HVSGT | < -0.25 |
| HVSSTNLLS | < -0.25 |
| HVTLALITYDSSQKVALVT | < -0.25 |
| HVVESPHR | < -0.25 |
| HVVPLIALESCGSSNPSSKY | < -0.25 |
| HVWFTEKVQVWEEDAPLHRL | < -0.25 |
| HWEMLAT | < -0.25 |
| HWGGRRI | < -0.253 |
| HWICTERKAVVPWVRIPC | < -0.25 |
| HWKVSTFGSRTF | < -0.25 |
| HWPGDFVTCLRVVPHIDALS | < -0.25 |
| HWPNVQNLSTYGNTDKMAVL | < -0.25 |
| HWSGIRLYVEE | -0.25 |
| HWSKNG | -0.191 |
| HYCYSRCGGVTIEGGI | < -0.25 |
| HYPSGVKASWRVSN | < -0.25 |
| HYQERR | < -0.25 |
| HYQSARSVYLKMQQGCDRVG | < -0.25 |
| HYWGLDVEDFD | < -0.25 |
| IAAHDNFSPFLVGWDIRP | -0.08 |

| Substance | growth estimate |
| --- | --- |
| IAAIVSQEATL | < -0.25 |
| IAANMELKCR | < -0.25 |
| IAANSW | < -0.25 |
| IAAP | < -0.25 |
| IACTYSNIVMVCQLATLKPS | < -0.25 |
| IADITFS | < -0.25 |
| IADPRFVFPGALDWVKRYRS | < -0.25 |
| IAEALV | < -0.25 |
| IAFVYNSSRTRGFRELKSEA | < -0.25 |
| IAGGSTRHKLR | < -0.25 |
| IAGNLLRGRSAACFRFRERF | < -0.25 |
| IAGPEGRRALSWLFIEP | < -0.25 |
| IAGQRRESGLDSLERRFIVP | < -0.25 |
| IAGSGLLRLN | < -0.25 |
| IAGVMVKQSRGFRRRLYR | < -0.25 |
| IAH | < -0.25 |
| IAIGLRLGVTTSKFTSYCGD | < -0.25 |
| IAIIIFTNNDC | < -0.25 |
| IAIVKGRMPCYCQGGRPLYS | < -0.25 |
| IAKASLARGMLVSLYGMDRG | < -0.25 |
| IAKGIKGRTGSL | < -0.25 |
| IAKQTGDAFRVAL | < -0.25 |
| IALLWVVYRALSGRRSVGCT | < -0.25 |
| IAQGHLCVQASEAEIKLATA | < -0.25 |

| Substance | growth estimate |
| --- | --- |
| IASLWIESGVLWVNNYSARW | < -0.25 |
| IASQRVNRRQQKDLRGADPA | < -0.25 |
| IASRFTRVPSPTPVISKWVP | < -0.25 |
| IATCADAALAVANSTFVFCL | < -0.25 |
| IAVGSVPSPGAESSLGFAWG | < -0.25 |
| IAWGFSGLGFTEDSRSCGWP | 0.156 |
| ICATLRTILG | < -0.25 |
| ICEECTDSGSKGPVKEDLTS | < -0.25 |
| ICHFMAVQNKVSMFDYAIKS | < -0.25 |
| ICLHVISTCAAPVHDSSGYA | < -0.25 |
| ICLLGVSCSLF | -0.232 |
| ICMKLRSSDRGPCRPVEIPY | < -0.25 |
| ICRLGPGIPPSKPLKRSDLT | < -0.25 |
| ICRLSMWCLRLFGEACGLKA | < -0.25 |
| ICSRVWSHQMVEGGRAY | < -0.25 |
| ICSSSIPVPVWLRVIAALQS | < -0.25 |
| ICWSIVGFVWTHKRLVLENM | < -0.25 |
| IDAFK | 0.194 |
| IDGNLYILLSGLGCCPIDGP | < -0.25 |
| IDGSLLSDA | < -0.25 |
| IDIIRILWSIEGYRTTDRRT | < -0.25 |
| IDPETRDVRTFYYKTFLPAA | -0.246 |
| IDRHFRELSGEGHCCQTMLP | < -0.25 |

2 records picked at random from those above:

| Substance | growth estimate |
| --- | --- |
| IASLWIESGVLWVNNYSARW | < -0.25 |
| HVLASGK | < -0.25 |
